# “And” between values parts separate entries of the source, which are not always exact repeats. Identical values can stand only once. This list was built around the results that the source calls inconclusive (neither active nor inactive); the mix of calls is not that of the screen. For part of these data: Potencies of inconclusive entries are doubtful fits and often do not repeat. The source made the active and inactive calls. Unless noted, calls follow the shape of the dose curve; as a rule, active = well fitted curve in the direction sought with a large enough effect in the repeat runs; inconclusive = weak or mixed curves; inactive = no such curve, though single readings can be large; an effect the other way counts as inactive or inconclusive.
# Protein sequences, listed by entry. Tags and fused reporters are not part of them. Lines headed by an entry give the natural chain unless they say otherwise; changes in a name come on top.
# UniProt P19793: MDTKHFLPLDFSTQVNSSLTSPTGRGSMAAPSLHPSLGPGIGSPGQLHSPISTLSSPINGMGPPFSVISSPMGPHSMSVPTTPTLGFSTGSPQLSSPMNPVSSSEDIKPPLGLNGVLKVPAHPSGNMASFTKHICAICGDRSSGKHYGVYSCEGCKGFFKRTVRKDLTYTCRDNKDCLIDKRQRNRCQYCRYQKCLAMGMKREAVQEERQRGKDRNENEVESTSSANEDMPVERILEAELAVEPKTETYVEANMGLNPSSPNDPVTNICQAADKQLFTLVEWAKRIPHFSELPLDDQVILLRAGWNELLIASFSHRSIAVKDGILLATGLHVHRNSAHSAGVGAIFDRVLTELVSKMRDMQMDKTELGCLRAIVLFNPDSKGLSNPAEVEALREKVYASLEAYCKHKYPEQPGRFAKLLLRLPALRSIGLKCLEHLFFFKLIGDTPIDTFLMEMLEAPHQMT
# Columns and labels:
# [1] = molecular target: Retinoic acid receptor RXR-alpha (Homo sapiens) (UniProt P19793); experiment: qHTS assay to identify small molecule agonists of the RXR signaling pathway (AID 1159527; calls by dose curve; also: nearly all actives have a fitted effect of over 35% in size; also: potency is read from the fitted curve at half-maximal effect; as to activation: % is scaled to controls: 0 for no effect and ±100 for the full control effect); settings: HEK293T RXRa-UAS-bla, beta-lactamase ratio, 16 h; activation: at 76.8 µM (top of the series) unless noted
# In short: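 Reporter activation is measured as beta-lactamase activity via FRET substrate cleavage (emission 460/530 nm) in HEK 293T cells expressing an RXR-alpha-driven bla construct, following 16 hr compound exposure at 37 C.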
# [2] = qHTS assay to identify small molecule agonists of the RXR signaling pathway - cell viability counter screen (AID 1159529); also: nearly all actives have a fitted effect of over 50% in size; also: potency is read from the fitted curve at half-maximal effect
# In short: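 Tox21 10K compounds were tested for cytotoxicity against GeneBLAzer RXR-alpha HEK 293T cells grown in 2% charcoal-stripped FBS. Exposure lasted 16 hr at 37 C, 5% CO2; viability read by CellTiter-Glo luminescence.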
# [3] = qHTS assay to identify small molecule agonists of the retinoic acid receptor (RAR) signaling pathway (AID 1159553); settings: C3RL4 RARE luciferase reporter, agonist, 6 h; activation: at 73.3 µM (top of the series) unless noted; also: potency is read from the fitted curve at half-maximal effect; as to activation: % is scaled to controls: 0 for no effect and ±100 for the full control effect
# In short: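 Seed C3RL4 reporter cells at 1,000 per well and incubate overnight at 37 C. Add compounds in DMSO, incubate 6 hr. Add luciferase reagent, wait 30 min at room temperature, read luminescence.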
# [4] = qHTS assay to identify small molecule antagonists of the retinoic acid receptor (RAR) signaling pathway (AID 1159552; also: potency is read from the fitted curve at half-maximal effect; nearly all actives have a fitted effect of over 50% in size)
# In short: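 Overnight-plated C3RL4 reporter cells get compound, then retinol to 1 uM final; plates sit 6 hr at 37 C, 5% CO2. A luciferase reagent is added and light output recorded after 30 min at room temperature.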
# [5] = qHTS assay to identify small molecule antagonists of the retinoid acid receptor (RAR) signaling pathway - cell viability counter screen (AID 1159551); also: % is scaled to controls: 0 for no effect and ±100 for the full control effect; nearly all actives have a fitted effect of over 35% in size
# In short: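 Cells (C3RL4) are plated, incubated overnight, dosed with compound in DMSO, then given retinol at 1 uM final. After 6 h at 37 C, CellTiter-Glo is added and luminescence read following 30 min at room temperature.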
smiles,measurement,setting,value
Cc1c(C(=O)O)cccc1[N+](=O)[O-],activation,[1],inconclusive: -33%
same,Potency,[2],"inconclusive: 62.7 µM [cytotoxic, single point]"
same,Potency,[3],"inconclusive: 49.3 µM [inhibitor, partial curve]"
COc1ccc(N=[N+]([O-])c2ccc(OC)cc2)cc1,Potency,[1],inactive
same,Potency,[2],"inconclusive: 17.2 µM [rising, partial curve, poor fit]"
same,Potency,[3],active: 0.027 µM
O=C(OCCCCCCOC(=O)c1ccccc1)c1ccccc1,Potency,[1],"inconclusive: 27.5 µM [rising, partial curve]"
same,Potency,[2],"inconclusive: 54.9 µM [cytotoxic, single point]"
same,Potency,[3],"inconclusive: 77 µM [inhibitor, single point]"
CCOCCn1c(N2CCCN(C)CC2)nc2ccccc21,Potency,[1],"inconclusive: 23.9 µM [rising, partial curve, poor fit]"
same,Potency,[2],inactive
same,Potency,[3],inactive
Cc1ccc(C=O)s1,Potency,[1],"inconclusive: 61.6 µM [rising, partial curve, poor fit]"
same,Potency,[2],"inconclusive: 61.6 µM [cytotoxic, single point]"
same,activation,[3],inconclusive: 8.28% [phenotype inactive]
CN(C)CCOC(c1ccccc1)c1ccc(Br)cc1 (stereo unspecified),Potency,[1],"inconclusive: 12 µM [rising, partial curve]"
same,Potency,[2],"inconclusive: 9.52 µM [cytotoxic, partial curve]"
same,Potency,[4],"inconclusive: 33.5 µM [inhibitor, single point]"
same,Potency,[3],"inconclusive: 21.1 µM [inhibitor, partial curve, poor fit]"
O=Cc1cc(O)ccc1Br,Potency,[1],"inconclusive: 7.02 µM [inhibitor, partial curve, poor fit]"
same,Potency,[2],inactive
same,Potency,[3],inconclusive: 24.7 µM [activator]
O=C(O)CNc1ccccc1,activation,[1],inconclusive: 5.12%
same,Potency,[2],inactive
same,Potency,[3],"inconclusive: 68.6 µM [activator, partial curve, poor fit]"
COC(=O)C1=C(C)NC(C)=C(C(=O)OCCCN2CCC(c3ccccc3)(c3ccccc3)CC2)C1c1cccc([N+](=O)[O-])c1 (stereo unspecified),Potency,[1],inconclusive: 4.77 µM [full curve]
same,Potency,[2],"inconclusive: 26.8 µM [cytotoxic, single point]"
same,Potency,[4],"inconclusive: 21.1 µM [inhibitor, partial curve]"
CC(C)OC=O,Potency,[1],"inconclusive: 36.8 µM [rising, partial curve]"
same,Potency,[2],"inconclusive: 46.4 µM [cytotoxic, partial curve]"
same,Potency,[3],"inconclusive: 72.9 µM [inhibitor, single point]"
Clc1ccc2c(c1)CCc1cccnc1C2=C1CCNCC1,activation,[1],inconclusive: -20.3% [at 35.3 µM]
same,Potency,[2],"inconclusive: 9.52 µM [cytotoxic, partial curve]"
same,Potency,[4],"inconclusive: 11.9 µM [inhibitor, partial curve]"
CO[Si](CCCOCC1CO1)(OC)OC (stereo unspecified),activation,[1],inconclusive: -28.3% and inconclusive: 6.91%
same,Potency,[5],inactive
